Reference: the supplement of paper PMC8256030
Several values for one entry are separate records, joined by “and”; a condition that tells them apart may be missing. Equal entries are not always repeated. The list shows a part of the results. This data set is noisy: repeats of one test often differ as much as different tests do.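 HEK293T cells were given each compound shortly before transfection with a reporter in which red mCherry is followed by the SARS-CoV-2 frameshift element and then GFP in the −1 frame, so GFP appears only after frameshifting.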

What was measured:
[1] = tested on: SARS-CoV-2 -1 PRF reporter mCherry-FSE-GFP(-1); assay: mCherry (red) intensity as percent of control; higher = higher upstream reporter expression; conditions: 10 µM; 24 h; HEK293T
[2] = tested on: SARS-CoV-2 -1 PRF reporter mCherry-FSE-GFP(-1); assay: percent effect, decrease of GFP/mCherry ratio (-1 PRF reporter) relative to controls; higher = stronger frameshift inhibition; conditions: 10 µM; 24 h; HEK293T

Compound | mCherry [1] | percent effect [2]
Nc1ccc(S(N)(=O)=O)cc1 [sulfanilamide] | 101% | -0.643%
C/N=C(\NC)NCc1ccccc1 [betanidine] | 139% | 0.689%
CCN(CC)CCNC(=O)c1ccc(N)cc1 [procainamide] | 90% and 87.5% | -2.97% and -0.104%
NC(=NCCCCCCN=C(N)N=C(N)Nc1ccc(Cl)cc1)N=C(N)Nc1ccc(Cl)cc1 | 95.2% | 0.606%
C[C@]12CC[C@@H]3c4ccc(OC(=O)c5ccccc5)cc4CC[C@H]3[C@@H]1CC[C@@H]2O [estradiol benzoate] | 106% | -1.98%
COCCCC/C(=N\OCCN)c1ccc(C(F)(F)F)cc1 | 96.2% | -1.11%
CN1CC2c3ccccc3Oc3ccc(Cl)cc3C2C1 (stereo unspecified) [Asenapine] | 121% | -0.0859%
O=S(=O)(O)CCS [mesna] | 91.8% | -0.844%
CC1CS(=O)(=O)CCN1/N=C/c1ccc([N+](=O)[O-])o1 (stereo unspecified) [nifurtimox] | 92.3% | -7.4%
c1ccc2[nH]c(-c3cscn3)nc2c1 [tiabendazole] | 107% | -0.228%
Cn1c(=O)c2c(ncn2CCCNCC(O)c2cc(O)cc(O)c2)n(C)c1=O (stereo unspecified) [reproterol] | 104% | -8.41%
CCCCCCCCCCCCC[N+](C)(C)Cc1ccccc1 | 75.5% | -4.02%
CCCCc1nc(Cl)c(CO)n1Cc1ccc(-c2ccccc2-c2nnn[nH]2)cc1 [Losartan] | 88% | -3.57%
COC(=O)C1=C(C#N)NC(C)=C(C(=O)OC(C)C)C1c1cccc([N+](=O)[O-])c1 (stereo unspecified) [nilvadipine] | 105% | -0.731%
CN(C/C=C/c1ccccc1)Cc1cccc2ccccc12 [naftifine] | 111% | -2.62%
O=C1CN2Cc3c(ccc(Cl)c3Cl)N=C2N1 | 129% | 1.65%
CC(=O)CC(c1ccccc1)c1c(O)c2ccccc2oc1=O (stereo unspecified) | 104% | -3.21%

Compound | mCherry [1] | percent effect [2]
CCOC(=O)c1ccc(O)cc1 | 111% | 1.74%
CC(=O)Nc1ccc(C(=O)O)cc1 [acedoben] | 129% | 3.75%
CN(CCOc1ccc(NS(C)(=O)=O)cc1)CCc1ccc(NS(C)(=O)=O)cc1 [dofetilide] | 95.4% | 1.48%
CCC(=O)OCC(=O)[C@@]1(OC(=O)CC)[C@H](C)C[C@H]2[C@H]3[C@H]([C@@H](O)C[C@@]21C)[C@@]1(C)C=CC(=O)C=C1C[C@H]3Cl | 89.4% | -2.84%
CC[N+](C)(C)Cc1ccccc1Br [bretylium tosilate] | 98.9% | -1.82%
Cc1cc2cc3c(C)cc(=O)oc3c(C)c2o1 [trioxysalen] | 130% | -8.4%
NC(=O)N/N=C/c1ccc([N+](=O)[O-])o1 | 78.8% | -4.27%
C[C@H]1c2cccc(O)c2C(O)=C2C(=O)[C@]3(O)C(O)=C(C(N)=O)C(=O)[C@@H](N(C)C)[C@@H]3[C@@H](O)[C@@H]21 | 103% | -6.96%
CN1CCN(C2Cc3ccccc3Sc3ccc(Cl)cc32)CC1 (stereo unspecified) [clorotepine] | 77.6% | -4.46%
CCOc1ccc(Cc2cc([C@@H]3O[C@H](CO)[C@@H](O)[C@H](O)[C@H]3O)ccc2Cl)cc1 [Dapagliflozin] | 124% | 4.12%
CC(=O)OCC1=C(C(=O)O)N2C(=O)[C@@H](NC(=O)CC#N)[C@H]2SC1 [cefacetrile] | 81.4% | -4.72%
CO[C@H]1O[C@H](COS(=O)(=O)O)[C@@H](O[C@@H]2O[C@@H](C(=O)O)[C@@H](O[C@H]3O[C@H](COS(=O)(=O)O)[C@@H](O[C@@H]4O[C@H](C(=O)O)[C@@H](O[C@H]5O[C@H](COS(=O)(=O)O)[C@@H](O)[C@H](O)[C@H]5NS(=O)(=O)O)[C@H](O)[C@H]4O)[C@H](OS(=O)(=O)O)[C@H]3NS(=O)(=O)O)[C@H](O)[C@H]2OS(=O)(=O)O)[C@H](O)[C@H]1NS(=O)(=O)O [Fondaparinux sodium] | 73% | -1.35%
CCCc1ncc(C(=O)O)s1 [tizoprolic acid] | 97.7% | 3.31%
CC1CC(OC(=O)c2ccccc2O)CC(C)(C)C1 (stereo unspecified) [homosalate] | 102% | -2.01%
NCCc1cc[nH]n1 | 112% | -2.2%
CC[C@H]1OC(=O)[C@H](C)[C@@H](O[C@H]2C[C@@](C)(OC)[C@@H](O)[C@H](C)O2)[C@H](C)[C@@H](O[C@@H]2O[C@H](C)C[C@H](N(C)C)[C@H]2O)[C@](C)(O)C[C@@H](C)/C(=N\OCOCCOC)[C@H](C)[C@@H](O)[C@]1(C)O | 77.6% | -1.6%

Shown in markdown: 8 of the compounds above

| Compound | mCherry [1] | percent effect [2] |
| --- | --- | --- |
| C[C@H]1c2cccc(O)c2C(O)=C2C(=O)[C@]3(O)C(O)=C(C(N)=O)C(=O)[C@@H](N(C)C)[C@@H]3[C@@H](O)[C@@H]21 | 103% | -6.96% |
| CN1CCN(C2Cc3ccccc3Sc3ccc(Cl)cc32)CC1 (stereo unspecified) [clorotepine] | 77.6% | -4.46% |
| CCOc1ccc(Cc2cc([C@@H]3O[C@H](CO)[C@@H](O)[C@H](O)[C@H]3O)ccc2Cl)cc1 [Dapagliflozin] | 124% | 4.12% |
| CC(=O)OCC1=C(C(=O)O)N2C(=O)[C@@H](NC(=O)CC#N)[C@H]2SC1 [cefacetrile] | 81.4% | -4.72% |
| CO[C@H]1O[C@H](COS(=O)(=O)O)[C@@H](O[C@@H]2O[C@@H](C(=O)O)[C@@H](O[C@H]3O[C@H](COS(=O)(=O)O)[C@@H](O[C@@H]4O[C@H](C(=O)O)[C@@H](O[C@H]5O[C@H](COS(=O)(=O)O)[C@@H](O)[C@H](O)[C@H]5NS(=O)(=O)O)[C@H](O)[C@H]4O)[C@H](OS(=O)(=O)O)[C@H]3NS(=O)(=O)O)[C@H](O)[C@H]2OS(=O)(=O)O)[C@H](O)[C@H]1NS(=O)(=O)O [Fondaparinux sodium] | 73% | -1.35% |
| CCCc1ncc(C(=O)O)s1 [tizoprolic acid] | 97.7% | 3.31% |
| CC1CC(OC(=O)c2ccccc2O)CC(C)(C)C1 (stereo unspecified) [homosalate] | 102% | -2.01% |
| NCCc1cc[nH]n1 | 112% | -2.2% |
